One molecule from PMC9276577, “SIRT1 pharmacological activation rescues vascular dysfunction and prevents thrombosis in MTHFR deficiency” (Cellular and Molecular Life Sciences: CMLS, 2022) can be followed below.

No constants are given. Whether binding was seen depends on the method and setting. Some results given as binding are weak or reduced against the parent protein; the word gives no strength.

The assay addresses endothelial nitric oxide synthase (eNOS) (mouse (endogenous in mesenteric arteries)) (UniProt P70313). The assay can be described thus: low-temperature SDS-PAGE (LT-PAGE) with western blot; extracts of mesenteric arteries from wild-type and Mthfr+/- mice; SDS-resistant eNOS dimer and monomer detected by blot; vessels treated ex vivo (RSV 25 uM 1 h, ISIDE11) or mice treated in vivo for 21 days (RSV, ISIDE11, with or without EX527).

B1: endothelial nitric oxide synthase (eNOS) (enzyme, UniProt P70313 1-1202)
chain: MGNLKSVGQEPGPPCGLGLGLGLGLCGKQGPASPAPEPSQAPAPPSPTRPAPDHSPPLTRPPDGPRFPRVKNWEVGSITYDTLSAQAQQDGPCTSRRCLGSLVFPRKLQSRPTQGPSPTEQLLGQARDFINQYYNSIKRSGSQAHEQRLQEVEAEVAATGTYQLRESELVFGAKQAWRNAPRCVGRIQWGKLQVFDARDCRTAQEMFTYICNHIKYATNRGNLRSAITVFPQRCPGRGDFRIWNSQLIRYAGYRQQDGSVRGDPANVEITELCIQHGWTPGNGRFDVLPLLLQAPDEPPELFTLPPEMVLEVPLEHPTLEWFAALGLRWYALPAVSNMLLEIGGLEFPAAPFSGWYMSSEIGMRDLCDPHRYNILEDVAVCMDLDTRTTSSLWKDKAAVEINVAVLHSYQLAKVTIVDHHAATASFMKHLENEQKARGGCPADWAWIVPPISGSLTPVFHQEMVNYFLSPAFRYQPDPWKGSAAKGAGITRKKTFKEVANAVKISASLMGTVMAKRVKATILYGSETGRAQSYAQQLGRLFRKAFDPRVLCMDEYDVVSLEHEALVLVVTSTFGNGDPPENGESFAAALMEMSGPYNSSPRPEQHKSYKIRFNSVSCSDPLVSSWRRKRKESSNTDSAGALGTLRFCVFGLGSRAYPHFCAFARAVDTRLEELGGERLLQLGQGDELCGQEEAFRGWAQAAFQAACETFCVGEDAKAAARDIFSPKRSWKRQRYRLSTQAESLQLLPGLTHVHRRKMFQATILSVENLQSSKSTRATILVRLDTGGQEGLQYQPGDHIGVCPPNRPGLVEALLSRVEDPPPSTEPVAVEQLEKGSPGGPPPGWVRDPRLPPCTLRQALTYFLDITSPPSPRLLRLLSTLAEESSEQQELEALSQDPRRYEEWKWFSCPTLLEVLEQFPSVALPAPLILTQLPLLQPRYYSVSSAPSAHPGEIHLTIAVLAYRTQDGLGPLHYGVCSTWMSQLKAGDPVPCFIRGAPSFRLPPDPNLPCILVGPGTGIAPFRGFWQDRLHDIEIKGLQPAPMTLVFGCRCSQLDHLYRDEVLDAQQRGVFGQVLTAFSRDPGSPKTYVQDLLRTELAAEVHRVLCLEQGHMFVCGDVTMATSVLQTVQRILATEGGMELDEAGDVIGVLRDQQRYHEDIFGLTLRTQEVTSRIRTQSFSLQERQLRGAVPWSFDPPGPEIPGS
Turning to B1, the binding entry is on record as “binds”.
